± gives the standard deviation. The entries are a selection whose mix differs from that of the whole data set. Many entries were measured with a wide error.
These sequences were tested on EfPiwi piRISC loaded with piRNA #1 (26 nt) (assay: pre-steady-state target cleavage rate (min^-1); guide: piRNA #1 5'p-UGAGGUAGUAGGUUGUAUAGUAUCCA; MIWI and MILI are mouse PIWI proteins and EfPiwi is from a freshwater sponge; tags in brackets are library labels; higher = faster piRNA-guided slicing of the target). Conditions: auxiliary factor: 500 nM Ephydatia muelleri Gtsf1.
Procedure, shortened: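 With or without 500 nM GTSF1 partner protein, 1 nM active affinity-purified piRISC carrying one synthetic guide was mixed with 0.1 nM transcribed, DNA-blocked target RNA library in HEPES–potassium acetate buffer at 33 °C for 0–8 or 0–960 min. Uncleaved targets were sequenced and normalised to depth and to weakly complementary targets, three trials were pooled, and k3 was capped at 0.0001 min^-1. The pre-steady-state cleavage rate came from a burst-and-steady-state fit.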

**Q.** Which “pre-steady-state target cleavage rate” value does the source give for GGAGACCUAAGUAUACAACCUAGUACCUCA here?
**A.** The value was 0.00297 ± 0.003.

**Q.** Which “pre-steady-state target cleavage rate” value does the source give for GGAGACCAUACUAUACAACGUACAACCUCA here?
**A.** Its value is 0.00296 ± 0.0025.

**Q.** With GGAGUGGAUACUAUAUAACCUACUACCUCA as the sequence, how does the “pre-steady-state target cleavage rate” value read?
**A.** Its value is 0.117 ± 0.045.

**Q.** How did the “pre-steady-state target cleavage rate” value turn out when GGAGACCUUUCUUUACAACCUACUACCUCA was run?
**A.** Its value is 0.00421 ± 0.0044.

**Q.** With GGAGACCUUUCUAUACAACGUACUACCUCA as the sequence, how does the “pre-steady-state target cleavage rate” value read?
**A.** Its value is 0.00139 ± 0.0023.

**Q.** How did the “pre-steady-state target cleavage rate” value turn out when GGAGACCUAUGAUAUGAACGUACUAGCUCA was run?
**A.** Its value is 0.000207 ± 0.02.

**Q.** With GGAGACCUUACUAUACAACCUACUUCCACA as the sequence, how does the “pre-steady-state target cleavage rate” value read?
**A.** The value was 0.00082 ± 0.0026.

**Q.** GGAGAGGAUACUAUACUACCUACAACCUCA was tested. Which “pre-steady-state target cleavage rate” value did it give?
**A.** Its value is 0.00213 ± 0.0022.

**Q.** Which “pre-steady-state target cleavage rate” value does the source give for GGAGACCUAACUAUACAACCUACUACGUGA here?
**A.** The value was 0.0069 ± 0.0046.

**Q.** With GGAGACCUAAGUAUACAACGUACUACCUCA as the sequence, how does the “pre-steady-state target cleavage rate” value read?
**A.** Its value is 0.00282 ± 0.0036.

**Q.** How did the “pre-steady-state target cleavage rate” value turn out when GGAGACCUAUCUAUACAACCUACUAGCCUCA was run?
**A.** The value was 0.00166 ± 0.0056.

**Q.** With GGAGACGAUACUAUACAACCUACUGCCUCA as the sequence, how does the “pre-steady-state target cleavage rate” value read?
**A.** Its value is 0.00691 ± 0.0024.

**Q.** With GGAGACCUAUCUUUACAUCCUACUACCUCA as the sequence, how does the “pre-steady-state target cleavage rate” value read?
**A.** Its value is 0.00277 ± 0.0038.

**Q.** GGAGAGCAUACUAUACAACCUUCUACCUCA was tested. Which “pre-steady-state target cleavage rate” value did it give?
**A.** The value was 0.00445 ± 0.0027.

**Q.** GGAGAGGAUACUAUACAAGCUUCUACCUCA was tested. Which “pre-steady-state target cleavage rate” value did it give?
**A.** The value was 0.0045 ± 0.0024.

**Q.** Which “pre-steady-state target cleavage rate” value does the source give for GGAGACCUAUGUAUACAACCUACUACUUCA here?
**A.** Its value is 0.00207 ± 0.0045.

**Q.** Which “pre-steady-state target cleavage rate” value does the source give for GGAGACCUAUGAUAACAACCUCCUACCUCA here?
**A.** Its value is 0.00112 ± 0.0078.

**Q.** How did the “pre-steady-state target cleavage rate” value turn out when GGAGACCUAUGUAUACAACCUACUACUCA was run?
**A.** Its value is 0.000409 ± 0.011.

**Q.** With GGAGUGGAACUAUACAACCUACUACCUCA as the sequence, how does the “pre-steady-state target cleavage rate” value read?
**A.** Its value is 0.00244 ± 0.0056.

**Q.** Which “pre-steady-state target cleavage rate” value does the source give for GGAGAGGAUACUAAAGAACCUACUACCUCA here?
**A.** The value was 0.00164 ± 0.0045.

**Q.** Which “pre-steady-state target cleavage rate” value does the source give for GGAGUGGUUAGUAUACAACCUACUACCUCA here?
**A.** Its value is 0.00533 ± 0.0036.

**Q.** Which “pre-steady-state target cleavage rate” value does the source give for GGAGACCUAUGUCAUACAACCUACUACCUCA here?
**A.** Its value is 0.00679 ± 0.0034.

**Q.** With GGAGACCUAUGAUAUCAAGGAACUACCUCA as the sequence, how does the “pre-steady-state target cleavage rate” value read?
**A.** The value was 0.000484 ± 0.013.

**Q.** For GGAGAGGAUACUAUAGAACGUACUACCUCA, which “pre-steady-state target cleavage rate” value is on record?
**A.** The value was 0.00158 ± 0.002.
